Assay results taken from PMC10897598, “TwinF interface inhibitor FP802 stops loss of motor neurons and mitigates disease progression in a mouse model of ALS” (Cell Reports Medicine, 2024).
No constants are given. Whether binding was seen depends on the method and setting. Binding seen in cells or lysates may run through a third protein. Some entries that bind do so weakly or less than the wild type.

Chains of the proteins cited; added tags and fusions are not shown. Residues count along the entry.
UniProt Q7TN37: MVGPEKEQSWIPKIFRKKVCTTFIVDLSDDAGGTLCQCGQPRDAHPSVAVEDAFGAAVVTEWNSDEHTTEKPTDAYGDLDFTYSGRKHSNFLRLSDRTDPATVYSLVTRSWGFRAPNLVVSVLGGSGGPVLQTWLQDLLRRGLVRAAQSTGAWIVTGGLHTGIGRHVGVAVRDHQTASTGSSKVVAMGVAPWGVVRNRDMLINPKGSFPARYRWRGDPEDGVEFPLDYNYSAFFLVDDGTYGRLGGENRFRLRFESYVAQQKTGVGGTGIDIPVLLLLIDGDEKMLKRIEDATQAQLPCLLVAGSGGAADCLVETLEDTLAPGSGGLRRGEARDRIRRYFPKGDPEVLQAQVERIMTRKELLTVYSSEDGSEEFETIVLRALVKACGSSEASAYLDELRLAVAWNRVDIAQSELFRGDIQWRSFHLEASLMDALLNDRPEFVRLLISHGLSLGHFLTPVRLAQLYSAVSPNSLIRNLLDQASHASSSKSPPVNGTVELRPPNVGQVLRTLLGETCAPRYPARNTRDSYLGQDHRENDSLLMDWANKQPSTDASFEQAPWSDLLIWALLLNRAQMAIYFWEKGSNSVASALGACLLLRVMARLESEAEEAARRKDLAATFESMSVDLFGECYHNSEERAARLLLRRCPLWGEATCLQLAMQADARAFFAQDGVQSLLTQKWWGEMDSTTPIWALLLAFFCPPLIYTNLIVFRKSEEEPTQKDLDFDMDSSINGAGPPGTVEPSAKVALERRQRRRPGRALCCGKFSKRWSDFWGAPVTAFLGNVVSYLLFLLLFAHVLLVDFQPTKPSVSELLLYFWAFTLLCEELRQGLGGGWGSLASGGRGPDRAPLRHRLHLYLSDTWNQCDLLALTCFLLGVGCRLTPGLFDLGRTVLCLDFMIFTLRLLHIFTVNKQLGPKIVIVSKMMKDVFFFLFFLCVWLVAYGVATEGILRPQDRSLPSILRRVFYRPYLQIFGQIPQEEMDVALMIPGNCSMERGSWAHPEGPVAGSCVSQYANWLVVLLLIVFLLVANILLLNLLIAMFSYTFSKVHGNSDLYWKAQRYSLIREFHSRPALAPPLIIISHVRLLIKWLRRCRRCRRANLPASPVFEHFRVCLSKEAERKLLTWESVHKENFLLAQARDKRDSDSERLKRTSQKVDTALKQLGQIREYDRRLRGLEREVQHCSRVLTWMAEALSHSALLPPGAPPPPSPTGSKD
UniProt Q01097, residues 27-1482: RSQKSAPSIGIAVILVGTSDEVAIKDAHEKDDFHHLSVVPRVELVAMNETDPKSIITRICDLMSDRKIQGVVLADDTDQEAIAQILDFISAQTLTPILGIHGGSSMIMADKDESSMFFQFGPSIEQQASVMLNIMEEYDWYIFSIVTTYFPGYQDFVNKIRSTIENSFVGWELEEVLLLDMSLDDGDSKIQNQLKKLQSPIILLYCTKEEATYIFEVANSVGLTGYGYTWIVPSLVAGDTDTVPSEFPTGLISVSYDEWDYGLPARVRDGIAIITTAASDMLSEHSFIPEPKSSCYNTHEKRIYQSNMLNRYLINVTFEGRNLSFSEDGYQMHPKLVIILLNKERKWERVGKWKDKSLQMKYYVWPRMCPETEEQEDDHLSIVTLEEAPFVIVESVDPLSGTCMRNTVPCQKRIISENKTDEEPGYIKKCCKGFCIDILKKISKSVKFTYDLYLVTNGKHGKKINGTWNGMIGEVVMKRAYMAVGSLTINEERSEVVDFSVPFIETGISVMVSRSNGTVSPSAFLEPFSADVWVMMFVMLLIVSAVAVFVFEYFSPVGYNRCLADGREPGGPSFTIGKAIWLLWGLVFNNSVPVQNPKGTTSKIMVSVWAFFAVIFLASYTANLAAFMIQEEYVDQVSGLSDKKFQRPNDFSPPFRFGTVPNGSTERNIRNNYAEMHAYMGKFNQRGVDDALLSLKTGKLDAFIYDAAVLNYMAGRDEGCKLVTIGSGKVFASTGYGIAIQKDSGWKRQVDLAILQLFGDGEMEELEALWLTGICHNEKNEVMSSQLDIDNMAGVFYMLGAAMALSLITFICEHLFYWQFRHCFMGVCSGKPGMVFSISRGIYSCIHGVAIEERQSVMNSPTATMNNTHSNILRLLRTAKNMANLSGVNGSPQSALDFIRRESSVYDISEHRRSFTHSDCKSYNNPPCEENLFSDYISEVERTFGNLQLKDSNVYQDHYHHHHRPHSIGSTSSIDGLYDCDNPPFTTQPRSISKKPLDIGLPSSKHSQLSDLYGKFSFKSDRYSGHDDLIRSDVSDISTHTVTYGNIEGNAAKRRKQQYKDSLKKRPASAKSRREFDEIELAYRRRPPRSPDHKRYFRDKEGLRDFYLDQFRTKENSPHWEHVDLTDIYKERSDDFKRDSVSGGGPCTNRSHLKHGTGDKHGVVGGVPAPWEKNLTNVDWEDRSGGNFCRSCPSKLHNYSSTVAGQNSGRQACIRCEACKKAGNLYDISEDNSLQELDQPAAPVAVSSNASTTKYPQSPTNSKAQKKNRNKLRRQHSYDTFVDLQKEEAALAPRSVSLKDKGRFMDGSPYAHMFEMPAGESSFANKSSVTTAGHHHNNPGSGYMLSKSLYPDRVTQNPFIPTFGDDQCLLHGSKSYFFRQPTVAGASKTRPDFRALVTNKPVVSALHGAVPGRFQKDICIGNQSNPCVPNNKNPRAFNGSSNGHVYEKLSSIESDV

Target: transient receptor potential cation channel subfamily M member 4 (TRPM4) (mouse (endogenous in lumbar spinal cord)) (UniProt Q7TN37)
Assay: co-IP; anti-TRPM4 antibody and protein A/G magnetic beads; lumbar spinal cord lysates of vehicle-treated mice (ALZET osmotic pump, two weeks); 4°C; 10 mM Tris pH 8.0, 150 mM NaCl, 1 mM EDTA, 1% Triton X-100, 10% glycerol; GluN2B immunoblot

- binding: binds
Substance: NMDAR subunit GluN2B (from UniProt Q01097 27-1482)
